# Measured values: US20030036103A1, “Methods and compositions for diagnosis and treatment of vascular conditions” (priority 2001, published 2003)
# At least one structure is not confirmed: it was looked up by name or label, or the drawing left a doubt.
# Tested on: human microvascular endothelial cells (HMVEC)
# Assay: TNFα-induced heparanase secretion by endothelial cells with signaling inhibitors (immunoblot)
# Assay type: cell-based
# Details: HMVEC incubated with TNFα and inhibitor for 16 h; wortmannin 0.1 and 0.5 μM, Ly294002 10 and 50 μM, SN50 10 μM, FPT inhibitor III 100 μM, PD98059 5 μM, SB203580 650 nM, ZM336372 200 nM, caspase inhibitor III 10 μM; FIG. 5
# Protocol: Human microvascular endothelial cells (HMVEC) were grown in 48-well plates (˜90% confluency). To induce heparanase activity, culture media was replaced with 200 μl Dulbecco's modified Eagle's medium (DMEM) complemented with 1% bovine serum albumin (BSA), 100 ng biotinylated HS and TNFα with or without (FIG. 5A) P13 kinase inhibitors (wortmannin, 0.1 μM and 0.5 μM, or Ly294002, 10 μM and 50 μM), (FIG. 5B) NFκB inhibitor (SN50, 10 μM), several MAP kinase inhibitors (FIG. 5C)—either 100 μM FPT inhibitor III (FPT, inhibits Ras processing in cells), 5 μM MAP kinase (MEK), inhibitor PD98059 (PD), 650 nM p38 kinase inhibitor SB203580 (SB), 200 nM c-Raf inhibitor ZM336372 (ZM); or an inhibitor cocktail (Cl) that contains all of the four inhibitors; or broad-spectrum caspase inhibitor III (Casp-I, 10 μM) (FIG. 5D). The cells were incubated with TNFα and the inhibitors for 16 h. The culture media was collected and the secreted proteins were analyzed by SDS-PAGE and heparanase protein was detected by immunoblotting using polyclonal anti-human heparanase antibody.
compound,measurement,value
COC[C@H]1OC(=O)c2coc3c2[C@@]1(C)C1=C(C3=O)[C@@H]2CCC(=O)[C@@]2(C)C[C@H]1OC(C)=O [wortmannin],inhibition of TNFα-induced heparanase secretion,do not inhibit
O=c1cc(N2CCOCC2)oc2c(-c3ccccc3)cccc12 [Ly294002],inhibition of TNFα-induced heparanase secretion,do not inhibit
